From publication doi:10.1101/2024.07.08.602551
Where a chain is given by its changes, count along the chain named. Where two headings read alike, the source gives them in different places. These are yes or no findings as the source states them, for the method shown. For part of these data: In cells and extracts the contact can be indirect. Some binding calls cover weakened binding; strength is not graded here. For part of these data: Sequences can lack the tags named with a protein. Each block holds one molecule with its values, some of them ahead of it.

By UniProt entry, the sequences of proteins in these tests, tags left out. Where a name states a change or a piece, a line headed by the entry shows the natural chain unless it says otherwise. Residues count along the entry.
UniProt P36894, 24-152: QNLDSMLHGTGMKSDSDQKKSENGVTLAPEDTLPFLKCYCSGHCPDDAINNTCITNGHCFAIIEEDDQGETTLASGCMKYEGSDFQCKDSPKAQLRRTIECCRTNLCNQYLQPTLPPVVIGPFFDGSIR

Experiments:
[1] = molecular target: T1, human Twisted gastrulation (residues Cys26-Phe223) (human) (UniProt Q9GZX9); test: SPR
T1 sequence: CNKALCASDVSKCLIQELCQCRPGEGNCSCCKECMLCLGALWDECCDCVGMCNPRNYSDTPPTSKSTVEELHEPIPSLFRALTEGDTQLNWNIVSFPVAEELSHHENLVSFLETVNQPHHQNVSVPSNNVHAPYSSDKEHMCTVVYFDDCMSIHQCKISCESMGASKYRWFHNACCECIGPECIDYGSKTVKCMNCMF

[2] = molecular target: T2, Drosophila Twisted gastrulation with C-terminal ALFA tag (Drosophila) (UniProt P54356); test: co-IP
T2 sequence: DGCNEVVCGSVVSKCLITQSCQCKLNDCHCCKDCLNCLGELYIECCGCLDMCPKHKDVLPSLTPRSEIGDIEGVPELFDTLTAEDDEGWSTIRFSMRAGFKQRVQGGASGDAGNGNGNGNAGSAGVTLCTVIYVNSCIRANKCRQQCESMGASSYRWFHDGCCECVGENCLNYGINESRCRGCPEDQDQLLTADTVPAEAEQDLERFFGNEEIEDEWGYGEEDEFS

[3] = molecular target: T3, Drosophila Tsg truncation (Met1-Glu208) lacking the tail, with ALFA tag (Drosophila) (UniProt P54356); test: co-IP
T3 sequence: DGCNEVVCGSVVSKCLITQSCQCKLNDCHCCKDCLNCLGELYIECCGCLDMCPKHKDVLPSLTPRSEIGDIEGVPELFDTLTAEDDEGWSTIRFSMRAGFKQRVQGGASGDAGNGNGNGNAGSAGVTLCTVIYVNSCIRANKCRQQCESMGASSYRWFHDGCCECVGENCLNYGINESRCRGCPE

[4] = molecular target: T4, Drosophila Twisted gastrulation Leu100Ala with C-terminal ALFA tag (Drosophila) (UniProt P54356); test: co-IP
T4 sequence: T2 sequence with L77A

[5] = molecular target: T2, Drosophila Twisted gastrulation with C-terminal ALFA tag (Drosophila); test: co-IP; remark: listed apart in the source
[6] = molecular target: T3, Drosophila Tsg truncation (Met1-Glu208) lacking the tail, with ALFA tag (Drosophila); test: co-IP; remark: listed apart in the source
[7] = molecular target: T5, human BMPR2-FC fusion protein (human) (UniProt Q13873); test: BLI
T5 sequence: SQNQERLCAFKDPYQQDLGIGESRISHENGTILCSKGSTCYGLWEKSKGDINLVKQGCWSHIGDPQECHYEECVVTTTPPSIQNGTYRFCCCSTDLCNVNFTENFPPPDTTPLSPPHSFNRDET

[8] = molecular target: human BMPR1a-FC fusion protein (human) (UniProt P36894); test: BLI

binding [1]: no binding (tested: 1 µM)
Molecule: human BMPR1a-FC fusion protein (from UniProt P36894 24-152)

binding [2]: binds
binding [3]: binds
binding [4]: binds
binding [5]: binds
binding [6]: binds
B1: Dpp:HA/Scw:Flag heterodimer (complex, UniProt P07713 457-588; P54631 278-400)
chain 1: DVSGGEGGGKGGRNKRQPRRPTRRKNHDDTCRRHSLYVDFSDVGWDDWIVAPLGYDAYYCHGKCPFPLADHFNSTNHAVVQTLVNNMNPGKVPKACCVPTQLDSVAMLYLNDQSTVVLKNYQEMTVVGCGCR
chain 2: AGGGSPPPPPPPPVDLYRPPQSCERLNFTVDFKELHMHNWVIAPKKFEAYFCGGGCNFPLGTKMNATNHAIVQTLMHLKQPHLPKPCCVPTVLGAITILRYLNEDIIDLTKYQKAVAKECGCH

binding [1]: no binding (tested: 1 µM)
B2: human BMPR2-FC fusion protein (Fc fusion, UniProt Q13873 27-150)
chain: T5 sequence

binding [7]: no binding (tested: 1 µM)
binding [8]: no binding (tested: 1 µM)
B3: human Twisted gastrulation (residues Cys26-Phe223) (protein, UniProt Q9GZX9 26-223)
chain: T1 sequence
